Test results: the supplement of paper PMC4604168 (melanoma cell lines)
The list shows a part of the results. Repeats are few or missing, and single values can be far off.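 Cells were imaged in 1,536-well plates, and nuclei stained with an antibody against cleaved PARP were counted against all DNA-stained nuclei to give the apoptosis fraction. Screening doses were chosen to leave most cells alive, and resting and induced cleaved-PARP levels differ strongly between cell lines.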

Assays:
Experiment in all cases: cleaved PARP positive nuclei fraction relative to DMSO control; melanoma cells; higher = more apoptosis
Conditions in all cases: library dose: low library concentration; 72 h
[1] = test system: WM115
[2] = test system: WM1716
[3] = test system: WM1745
[4] = test system: WM3526
[5] = test system: WM3619
[6] = test system: WM451Lu

Compound | cleaved PARP positive nuclei fraction [1] | cleaved PARP positive nuclei fraction [2] | cleaved PARP positive nuclei fraction [3] | cleaved PARP positive nuclei fraction [4] | cleaved PARP positive nuclei fraction [5] | cleaved PARP positive nuclei fraction [6]
CCN(CC)CCNC(=O)c1c(C)[nH]c(/C=C2\C(=O)Nc3ccc(F)cc32)c1C [sunitinib] + CCCCCCCCc1ccc(CCC(N)(CO)CO)cc1 [fingolimod] (first compound 0.4 µM, partner dose 2 µM) | 145% | 57.8% | 153% | 133% | 92.1% | 42.7%
CC1(C)CCC(c2ccc(Cl)cc2)=C(CN2CCN(c3ccc(C(=O)NS(=O)(=O)c4ccc(N[C@H](CCN5CCOCC5)CSc5ccccc5)c(S(=O)(=O)C(F)(F)F)c4)cc3)CC2)C1 + C=CCn1c(=O)c2cnc(Nc3ccc(N4CCN(C)CC4)cc3)nc2n1-c1cccc(C(C)(C)O)n1 [MK1775] (first compound 0.4 µM, partner dose 0.02 µM) | 594% | 309% | 1560% | 92.8% | 251% | 30.3%
C[C@@H](N)c1ccc(C(=O)Nc2ccnc3[nH]ccc23)cc1 + COc1ccc(COc2ccc(Cc3cnc(N)nc3N)cc2OC)cc1 [GW2580] (first compound 0.4 µM, partner dose 1 µM) | 116% | 103% | 118% | 74% | 93.6% | 137%
CCCCCCCCc1ccc(CCC(N)(CO)CO)cc1 [fingolimod] + CO[C@H]1C[C@@H]2CC[C@@H](C)[C@@](O)(O2)C(=O)C(=O)N2CCCC[C@H]2C(=O)O[C@H]([C@H](C)C[C@@H]2CC[C@@H](OCCO)[C@H](OC)C2)CC(=O)[C@H](C)/C=C(\C)[C@@H](O)[C@@H](OC)C(=O)[C@H](C)C[C@H](C)/C=C/C=C/C=C/1C [everolimus] (first compound 2 µM, partner dose 0.02 µM) | 67.4% | 228% | 123% | 90.4% | 136% | 44.2%
CC(=O)O[C@@]12CO[C@@H]1C[C@H](O)[C@@]1(C)C(=O)[C@H](O)C3=C(C)[C@@H](OC(=O)[C@H](O)[C@@H](NC(=O)OC(C)(C)C)c4ccccc4)C[C@@](O)([C@@H](OC(=O)c4ccccc4)[C@H]21)C3(C)C [Docetaxel] + Oc1nc(-c2ccc(C(F)(F)F)cc2)nc2c1CSCC2 [XAV939] (first compound 0.0001 µM, partner dose 2 µM) | 204% | 2930% | 267% | 194% | 113% | 71.4%
Cn1cnc2c(F)c(Nc3ccc(Br)cc3Cl)c(C(=O)NOCCO)cc21 [selumetinib] + Oc1nc(-c2ccc(C(F)(F)F)cc2)nc2c1CSCC2 [XAV939] (first compound 0.015 µM, partner dose 2 µM) | 153% | 147% | 472% | 87.1% | 105% | 135%
CN(c1ncccc1CNc1nc(Nc2ccc3c(c2)CC(=O)N3)ncc1C(F)(F)F)S(C)(=O)=O + Nc1ccn([C@@H]2O[C@H](CO)[C@@H](O)C2(F)F)c(=O)n1 [gemcitabine] (first compound 0.08 µM, partner dose 0.0004 µM) | 245% | 1930% | 135% | 104% | 90.9% | 360%
CCN(CC)CCNC(=O)c1c(C)[nH]c(/C=C2\C(=O)Nc3ccc(F)cc32)c1C [sunitinib] + C[C@]1(c2nc3c(C(N)=O)cccc3[nH]2)CCCN1 [Veliparib] (first compound 0.4 µM, partner dose 1.4 µM) | 132% | 54.9% | 112% | 118% | 68.3% | 51.8%
CN(c1ncccc1CNc1nc(Nc2ccc3c(c2)CC(=O)N3)ncc1C(F)(F)F)S(C)(=O)=O + O=C(O)c1ccc(-c2c[nH]c3ncc(-c4ccccc4)cc23)cc1C1CCCC1 [GSK650394] (first compound 0.08 µM, partner dose 0.16 µM) | 132% | 108% | 110% | 55.6% | 89.4% | 189%
COc1ccc(C2=N[C@@H](c3ccc(Cl)cc3)[C@@H](c3ccc(Cl)cc3)N2C(=O)N2CCNC(=O)C2)c(OC(C)C)c1 [Nutlin-3] + COc1ccc2c(c1)CCC1C2CCC2(C)C(NCCCCCCN3C(=O)C=CC3=O)CCC12 [U73122] (first compound 0.1 µM, partner dose 0.4 µM) | 105% | 388% | 98.9% | 85.1% | 119% | 107%
Cn1cnc2c(F)c(Nc3ccc(Br)cc3Cl)c(C(=O)NOCCO)cc21 [selumetinib] + OCc1c[nH]c2ccccc12 [Indole-3-carbinol] (first compound 0.015 µM, partner dose 0.8 µM) | 63.9% | 543% | 108% | 48.2% | 143% | 80.7%
NC(=O)c1ccc(N(C(N)=O)c2c(F)cccc2F)nc1-c1ccc(F)cc1F + Cc1cc(Nc2cc(N3CCN(C)CC3)nc(/C=C/c3ccccc3)n2)n[nH]1 [ENMD2076] (first compound 0.4 µM, partner dose 0.04 µM) | 187% | 103% | 101% | 40% | 64.1% | 50.9%

Copied from the list.
Entry of CCN(CC)CCNC(=O)c1c(C)[nH]c(/C=C2\C(=O)Nc3ccc(F)cc32)c1C [sunitinib] + CCCCCCCCc1ccc(CCC(N)(CO)CO)cc1 [fingolimod] (first compound 0.4 µM, partner dose 2 µM) under cleaved PARP positive nuclei fraction [6]: 42.7%
Entry of CC1(C)CCC(c2ccc(Cl)cc2)=C(CN2CCN(c3ccc(C(=O)NS(=O)(=O)c4ccc(N[C@H](CCN5CCOCC5)CSc5ccccc5)c(S(=O)(=O)C(F)(F)F)c4)cc3)CC2)C1 + C=CCn1c(=O)c2cnc(Nc3ccc(N4CCN(C)CC4)cc3)nc2n1-c1cccc(C(C)(C)O)n1 [MK1775] (first compound 0.4 µM, partner dose 0.02 µM) under cleaved PARP positive nuclei fraction [6]: 30.3%
